Experimental data reported in the supplement of paper PMC10849652.
Some of the results follow.

The chains behind the UniProt entries cited, without tags or fusion partners. Where a name states a change or a piece, a line headed by the entry shows the natural chain unless it says otherwise.
UniProt Q8IWU2: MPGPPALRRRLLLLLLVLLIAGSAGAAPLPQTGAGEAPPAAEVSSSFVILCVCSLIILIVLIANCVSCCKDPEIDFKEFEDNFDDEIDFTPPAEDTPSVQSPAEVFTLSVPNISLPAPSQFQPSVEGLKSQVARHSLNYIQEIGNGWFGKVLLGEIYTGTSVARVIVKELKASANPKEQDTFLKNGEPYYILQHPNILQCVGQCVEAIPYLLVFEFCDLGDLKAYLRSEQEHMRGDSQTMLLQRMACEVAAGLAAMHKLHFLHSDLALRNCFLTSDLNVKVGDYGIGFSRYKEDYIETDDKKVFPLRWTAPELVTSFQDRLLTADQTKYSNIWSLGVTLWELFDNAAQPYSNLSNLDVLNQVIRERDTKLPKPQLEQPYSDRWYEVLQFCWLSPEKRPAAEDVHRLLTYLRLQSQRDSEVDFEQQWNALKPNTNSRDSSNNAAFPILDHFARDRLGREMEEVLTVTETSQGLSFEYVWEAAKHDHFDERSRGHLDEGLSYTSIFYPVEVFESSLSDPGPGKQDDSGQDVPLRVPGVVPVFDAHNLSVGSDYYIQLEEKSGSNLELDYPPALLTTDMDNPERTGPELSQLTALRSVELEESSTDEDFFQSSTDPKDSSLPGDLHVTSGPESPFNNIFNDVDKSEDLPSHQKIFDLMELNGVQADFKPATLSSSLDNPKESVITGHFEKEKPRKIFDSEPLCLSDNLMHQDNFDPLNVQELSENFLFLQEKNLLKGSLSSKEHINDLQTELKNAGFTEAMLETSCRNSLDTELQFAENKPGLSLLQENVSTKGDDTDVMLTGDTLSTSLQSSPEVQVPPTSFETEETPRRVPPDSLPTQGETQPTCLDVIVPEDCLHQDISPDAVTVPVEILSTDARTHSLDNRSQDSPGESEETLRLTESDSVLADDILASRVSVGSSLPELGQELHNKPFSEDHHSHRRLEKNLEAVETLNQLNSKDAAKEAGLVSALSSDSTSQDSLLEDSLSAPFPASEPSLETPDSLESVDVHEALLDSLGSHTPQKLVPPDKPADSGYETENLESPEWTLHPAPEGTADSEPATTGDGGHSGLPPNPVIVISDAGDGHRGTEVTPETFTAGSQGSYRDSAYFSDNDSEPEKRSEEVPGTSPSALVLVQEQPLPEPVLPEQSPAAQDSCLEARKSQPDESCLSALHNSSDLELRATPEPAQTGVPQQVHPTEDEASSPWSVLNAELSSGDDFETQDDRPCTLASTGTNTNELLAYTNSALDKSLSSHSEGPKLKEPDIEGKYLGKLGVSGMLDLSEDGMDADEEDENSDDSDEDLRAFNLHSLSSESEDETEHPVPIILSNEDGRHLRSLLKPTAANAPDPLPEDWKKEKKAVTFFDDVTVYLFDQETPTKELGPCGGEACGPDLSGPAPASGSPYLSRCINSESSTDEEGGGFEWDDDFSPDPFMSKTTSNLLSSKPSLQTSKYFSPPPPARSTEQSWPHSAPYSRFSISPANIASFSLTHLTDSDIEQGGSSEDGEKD
UniProt Q96FE5: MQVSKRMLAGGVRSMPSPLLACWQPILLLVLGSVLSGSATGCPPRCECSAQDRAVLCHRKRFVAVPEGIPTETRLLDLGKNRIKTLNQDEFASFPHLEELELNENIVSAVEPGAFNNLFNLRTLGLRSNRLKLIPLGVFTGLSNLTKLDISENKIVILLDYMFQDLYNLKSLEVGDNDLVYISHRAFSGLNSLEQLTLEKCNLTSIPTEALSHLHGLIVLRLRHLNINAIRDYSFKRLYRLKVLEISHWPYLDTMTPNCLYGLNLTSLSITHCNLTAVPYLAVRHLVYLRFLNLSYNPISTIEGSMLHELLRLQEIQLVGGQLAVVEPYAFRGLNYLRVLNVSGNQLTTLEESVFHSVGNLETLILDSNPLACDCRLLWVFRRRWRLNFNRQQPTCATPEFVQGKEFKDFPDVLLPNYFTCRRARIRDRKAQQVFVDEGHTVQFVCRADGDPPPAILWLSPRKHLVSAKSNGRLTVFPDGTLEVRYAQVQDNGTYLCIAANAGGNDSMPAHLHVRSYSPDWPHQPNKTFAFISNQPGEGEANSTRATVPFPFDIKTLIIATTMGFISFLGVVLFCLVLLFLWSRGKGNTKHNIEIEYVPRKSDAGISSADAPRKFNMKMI
UniProt Q86U70: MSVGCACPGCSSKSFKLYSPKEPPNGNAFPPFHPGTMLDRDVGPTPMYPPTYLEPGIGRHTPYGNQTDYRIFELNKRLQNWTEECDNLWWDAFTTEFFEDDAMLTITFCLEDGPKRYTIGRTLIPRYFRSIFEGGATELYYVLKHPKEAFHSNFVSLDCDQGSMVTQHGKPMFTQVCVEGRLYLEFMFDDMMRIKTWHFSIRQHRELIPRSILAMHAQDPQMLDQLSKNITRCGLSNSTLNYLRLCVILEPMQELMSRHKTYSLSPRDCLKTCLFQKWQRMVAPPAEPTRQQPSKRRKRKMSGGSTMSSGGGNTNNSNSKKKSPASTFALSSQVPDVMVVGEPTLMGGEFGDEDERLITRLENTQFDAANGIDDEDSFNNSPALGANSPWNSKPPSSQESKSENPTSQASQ
UniProt P07864: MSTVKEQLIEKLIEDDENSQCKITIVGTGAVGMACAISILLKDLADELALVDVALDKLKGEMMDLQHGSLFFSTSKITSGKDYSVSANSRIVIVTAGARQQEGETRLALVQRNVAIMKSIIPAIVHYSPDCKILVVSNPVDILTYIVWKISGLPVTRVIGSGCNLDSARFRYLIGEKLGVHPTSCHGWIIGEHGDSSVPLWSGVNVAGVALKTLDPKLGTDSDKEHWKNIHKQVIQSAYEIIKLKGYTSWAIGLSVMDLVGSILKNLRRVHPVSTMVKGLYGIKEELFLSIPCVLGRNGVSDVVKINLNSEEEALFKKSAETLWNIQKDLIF
UniProt Q9UFC0: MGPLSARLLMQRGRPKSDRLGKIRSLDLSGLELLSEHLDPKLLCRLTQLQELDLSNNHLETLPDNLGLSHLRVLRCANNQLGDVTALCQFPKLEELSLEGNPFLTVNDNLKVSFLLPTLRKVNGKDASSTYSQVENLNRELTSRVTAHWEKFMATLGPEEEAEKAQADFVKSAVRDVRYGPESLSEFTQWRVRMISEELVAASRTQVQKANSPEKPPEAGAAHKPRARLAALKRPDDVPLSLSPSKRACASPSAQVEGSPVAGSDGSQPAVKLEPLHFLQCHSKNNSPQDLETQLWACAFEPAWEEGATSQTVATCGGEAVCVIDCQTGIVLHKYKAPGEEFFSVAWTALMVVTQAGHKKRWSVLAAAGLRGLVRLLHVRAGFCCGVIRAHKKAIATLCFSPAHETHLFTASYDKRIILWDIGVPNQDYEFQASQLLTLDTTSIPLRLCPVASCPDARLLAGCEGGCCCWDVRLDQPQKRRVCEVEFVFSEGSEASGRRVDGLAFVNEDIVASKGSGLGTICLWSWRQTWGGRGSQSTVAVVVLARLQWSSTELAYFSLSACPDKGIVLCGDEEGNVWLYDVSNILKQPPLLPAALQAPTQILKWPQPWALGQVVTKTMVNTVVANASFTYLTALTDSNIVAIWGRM
UniProt Q9H9A6: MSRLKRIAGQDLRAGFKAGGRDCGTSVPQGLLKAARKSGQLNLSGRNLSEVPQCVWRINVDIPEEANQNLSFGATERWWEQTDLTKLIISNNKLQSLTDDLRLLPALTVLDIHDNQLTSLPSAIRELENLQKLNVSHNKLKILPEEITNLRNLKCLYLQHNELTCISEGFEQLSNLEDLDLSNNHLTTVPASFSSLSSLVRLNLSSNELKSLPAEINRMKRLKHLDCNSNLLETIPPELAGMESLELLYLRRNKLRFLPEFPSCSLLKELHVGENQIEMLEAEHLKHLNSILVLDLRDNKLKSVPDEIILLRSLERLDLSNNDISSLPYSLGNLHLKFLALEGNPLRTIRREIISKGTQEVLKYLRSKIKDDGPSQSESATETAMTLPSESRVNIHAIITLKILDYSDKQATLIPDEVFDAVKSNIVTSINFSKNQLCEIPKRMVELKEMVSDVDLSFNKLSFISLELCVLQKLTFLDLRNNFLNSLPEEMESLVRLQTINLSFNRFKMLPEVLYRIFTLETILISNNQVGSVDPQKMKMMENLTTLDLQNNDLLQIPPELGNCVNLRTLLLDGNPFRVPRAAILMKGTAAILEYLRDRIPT
UniProt O15116: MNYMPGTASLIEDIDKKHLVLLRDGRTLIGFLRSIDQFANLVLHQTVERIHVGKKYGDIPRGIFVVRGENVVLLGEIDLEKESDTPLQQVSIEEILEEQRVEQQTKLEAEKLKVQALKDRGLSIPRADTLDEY
UniProt P49257: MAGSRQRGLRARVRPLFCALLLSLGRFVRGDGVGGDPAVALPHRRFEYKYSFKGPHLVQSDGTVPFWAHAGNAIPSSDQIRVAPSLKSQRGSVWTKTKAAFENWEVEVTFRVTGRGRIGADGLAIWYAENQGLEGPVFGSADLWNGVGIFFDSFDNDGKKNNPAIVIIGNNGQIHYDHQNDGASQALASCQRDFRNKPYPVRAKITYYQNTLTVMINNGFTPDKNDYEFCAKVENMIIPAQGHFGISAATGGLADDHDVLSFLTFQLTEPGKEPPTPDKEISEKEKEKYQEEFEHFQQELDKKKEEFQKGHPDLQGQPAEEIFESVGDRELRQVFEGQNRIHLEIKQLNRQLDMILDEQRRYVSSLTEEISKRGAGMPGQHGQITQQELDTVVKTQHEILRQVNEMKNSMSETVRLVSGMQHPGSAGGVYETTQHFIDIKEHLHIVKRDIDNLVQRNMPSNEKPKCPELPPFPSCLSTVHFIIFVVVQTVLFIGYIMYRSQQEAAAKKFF
UniProt O95202: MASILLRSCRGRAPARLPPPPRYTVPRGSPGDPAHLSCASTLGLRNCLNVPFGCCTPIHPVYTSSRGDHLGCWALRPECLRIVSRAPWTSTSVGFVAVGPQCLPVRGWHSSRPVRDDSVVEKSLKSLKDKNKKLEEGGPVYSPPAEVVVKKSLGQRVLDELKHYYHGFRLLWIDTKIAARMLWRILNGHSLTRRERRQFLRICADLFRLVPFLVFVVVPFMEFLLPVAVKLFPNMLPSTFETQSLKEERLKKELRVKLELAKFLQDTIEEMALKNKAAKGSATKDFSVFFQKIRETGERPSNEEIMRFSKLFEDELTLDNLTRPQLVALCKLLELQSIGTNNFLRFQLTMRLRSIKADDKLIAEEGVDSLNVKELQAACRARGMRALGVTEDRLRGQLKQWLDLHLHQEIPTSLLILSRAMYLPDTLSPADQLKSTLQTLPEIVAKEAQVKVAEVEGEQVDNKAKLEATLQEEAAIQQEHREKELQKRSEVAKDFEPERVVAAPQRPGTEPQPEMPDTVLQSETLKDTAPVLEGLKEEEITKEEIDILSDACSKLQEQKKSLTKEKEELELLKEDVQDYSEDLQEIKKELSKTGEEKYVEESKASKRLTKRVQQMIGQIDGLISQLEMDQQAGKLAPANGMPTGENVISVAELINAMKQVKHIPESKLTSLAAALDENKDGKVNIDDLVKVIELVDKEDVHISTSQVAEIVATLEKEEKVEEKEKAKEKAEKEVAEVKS
UniProt P25791: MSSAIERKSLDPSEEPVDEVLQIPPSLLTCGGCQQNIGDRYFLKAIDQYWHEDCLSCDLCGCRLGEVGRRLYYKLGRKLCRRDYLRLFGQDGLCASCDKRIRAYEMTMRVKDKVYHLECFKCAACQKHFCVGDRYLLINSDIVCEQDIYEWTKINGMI
UniProt P17931, whole entry, looked up: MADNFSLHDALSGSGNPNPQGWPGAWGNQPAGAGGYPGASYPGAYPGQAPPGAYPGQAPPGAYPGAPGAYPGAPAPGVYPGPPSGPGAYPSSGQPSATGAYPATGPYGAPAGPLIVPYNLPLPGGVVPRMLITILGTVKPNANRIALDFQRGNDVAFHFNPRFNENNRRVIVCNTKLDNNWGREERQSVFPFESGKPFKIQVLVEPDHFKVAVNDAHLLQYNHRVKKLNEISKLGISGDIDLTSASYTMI
UniProt P62310: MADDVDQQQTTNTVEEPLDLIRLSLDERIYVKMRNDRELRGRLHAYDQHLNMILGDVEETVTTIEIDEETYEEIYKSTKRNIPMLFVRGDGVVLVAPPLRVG
UniProt Q9H6V9: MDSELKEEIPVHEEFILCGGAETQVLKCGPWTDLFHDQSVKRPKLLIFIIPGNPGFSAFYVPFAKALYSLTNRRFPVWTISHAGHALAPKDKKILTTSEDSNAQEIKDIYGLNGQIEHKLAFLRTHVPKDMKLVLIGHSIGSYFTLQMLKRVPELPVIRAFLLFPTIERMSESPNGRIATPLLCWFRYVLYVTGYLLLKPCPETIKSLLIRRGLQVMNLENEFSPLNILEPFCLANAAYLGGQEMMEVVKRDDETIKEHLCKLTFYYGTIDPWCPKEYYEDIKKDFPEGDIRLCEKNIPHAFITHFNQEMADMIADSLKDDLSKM
UniProt Q9NUP9: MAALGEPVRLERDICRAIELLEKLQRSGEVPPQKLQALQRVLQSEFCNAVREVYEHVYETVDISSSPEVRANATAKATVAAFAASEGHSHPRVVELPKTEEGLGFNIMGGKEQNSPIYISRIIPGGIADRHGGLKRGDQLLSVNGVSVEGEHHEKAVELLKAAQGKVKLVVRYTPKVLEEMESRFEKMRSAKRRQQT

Compound: C1=CC2=NC=CN=C2C=C1/C=C/3\C(=O)NC(=O)S3
Test: log2 fold change, soluble protein after heating vs DMSO (PISA); higher = thermal stabilisation; K562 lysate, 10 uM; active = over 0.2 and 3.5 SD of the protein, either way, in both replicates (recomputed)
Summary of the method: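 K562 pellets were dounce-homogenised in PBS pH 7.4 with 1 mM MgCl2, and the crude extract at 1 mg/mL protein was treated with 10 μM compound for 30 min. Aliquots were heated for 3 min across 48°C-58°C, pooled, and brought to 0.5% NP-40 at 4°C; soluble protein was the supernatant after 21,000xg for 90 min. Soluble protein was quantified by TMTpro 16plex LC-MS/MS with channel sums equalised, and reported as log2 fold change in thermal stability against DMSO controls, with values from duplicates.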

Row | Target | log2 fold change
1 | LIG1 (UniProt P18858) | inactive: -0.003
2 | LMTK2 (UniProt Q8IWU2) | inactive: -0.076
3 | LMNA (UniProt P02545) | inactive: -0.025
4 | LARS2 (UniProt Q15031) | inactive: -0.041
5 | LINGO1 (UniProt Q96FE5) | inactive: -0.014
6 | LDB1 (UniProt Q86U70) | inactive: -0.006
7 | LRRC57 (UniProt Q8N9N7) | inactive: 0.018
8 | LDHC (UniProt P07864) | inactive: 0.056
9 | LENG1 (UniProt Q96BZ8) | inactive: -0.005
10 | LRRC8A (UniProt Q8IWT6) | inactive: -0.046
11 | LRWD1 (UniProt Q9UFC0) | inactive: 0.057
12 | LRRC40 (UniProt Q9H9A6) | inactive: -0.028
13 | LCP2 (UniProt Q13094) | inactive: -0.013
14 | LRCH3 (UniProt Q96II8) | inactive: 0.001
15 | LSM8 (UniProt O95777) | active: 0.423
16 | LIN54 (UniProt Q6MZP7) | inactive: 0.056
17 | LRPAP1 (UniProt P30533) | inactive: 0.014
18 | LRRC8B (UniProt Q6P9F7) | inactive: -0.011
19 | LSS (UniProt P48449) | inactive: -0.005

Part of the list above, as comma-separated lines:
Row,Target,log2 fold change
5,LINGO1 (UniProt Q96FE5),inactive: -0.014
14,LRCH3 (UniProt Q96II8),inactive: 0.001
19,LSS (UniProt P48449),inactive: -0.005

The list continues:

Row | Target | log2 fold change
20 | LRRC8C (UniProt Q8TDW0) | inactive: -0.074
21 | LPIN1 isoform 7 (UniProt Q14693) | inactive: 0.003
22 | LRRFIP2 (UniProt Q9Y608) | inactive: -0.008
23 | LSM6 (UniProt P62312) | inactive: 0.003
24 | LSM1 (UniProt O15116) | inactive: -0.093
25 | LMAN1 (UniProt P49257) | inactive: -0.013
26 | LRRC14 (UniProt Q15048) | inactive: -0.08
27 | LETM1 (UniProt O95202) | inactive: 0.014
28 | LMNB1 (UniProt P20700) | inactive: -0.032
29 | LPCAT3 (UniProt Q6P1A2) | inactive: 0.016
30 | LIG4 (UniProt P49917) | inactive: 0.002
31 | LRCH4 (UniProt O75427) | inactive: -0.2
32 | LMO2 isoform 3 (UniProt P25791) | inactive: 0.208
33 | LGALS3 (UniProt P17931) | inactive: 0.114
34 | LSM3 (UniProt P62310) | inactive: -0.001
35 | LCP1 (UniProt P13796) | inactive: -0.018
36 | LCMT2 (UniProt O60294) | inactive: 0.042
37 | LDAH isoform 2 (UniProt Q9H6V9) | inactive: 0.005
38 | LIN7C (UniProt Q9NUP9) | inactive: 0.002
